No constants are given. Whether binding was seen depends on the method and setting. A result given as binding can be weak or reduced; the word gives no strength. For part of these data: In cells and extracts the contact can be indirect.

Protein sequences, listed by entry. Tags and fused reporters are not part of them. Lines headed by an entry give the natural chain unless they say otherwise; changes in a name come on top. Chains listed by the source or under a name are the forms on record and can include a tag or linker.
UniProt O95365: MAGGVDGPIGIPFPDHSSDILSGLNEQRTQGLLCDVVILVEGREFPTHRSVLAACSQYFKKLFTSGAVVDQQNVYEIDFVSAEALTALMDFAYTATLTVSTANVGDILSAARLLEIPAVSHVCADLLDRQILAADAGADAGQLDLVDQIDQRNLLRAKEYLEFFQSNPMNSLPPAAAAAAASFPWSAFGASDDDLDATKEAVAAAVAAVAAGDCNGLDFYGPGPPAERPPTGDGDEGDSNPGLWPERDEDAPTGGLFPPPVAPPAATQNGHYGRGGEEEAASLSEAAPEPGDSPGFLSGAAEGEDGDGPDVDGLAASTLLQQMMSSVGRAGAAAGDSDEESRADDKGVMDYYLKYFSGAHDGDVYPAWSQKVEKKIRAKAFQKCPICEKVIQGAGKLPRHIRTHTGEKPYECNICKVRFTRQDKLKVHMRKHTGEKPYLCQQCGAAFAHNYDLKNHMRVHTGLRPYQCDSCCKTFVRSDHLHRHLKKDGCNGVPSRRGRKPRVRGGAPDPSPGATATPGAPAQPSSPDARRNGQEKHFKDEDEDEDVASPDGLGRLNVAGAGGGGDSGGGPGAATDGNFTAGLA
UniProt Q6W2J9: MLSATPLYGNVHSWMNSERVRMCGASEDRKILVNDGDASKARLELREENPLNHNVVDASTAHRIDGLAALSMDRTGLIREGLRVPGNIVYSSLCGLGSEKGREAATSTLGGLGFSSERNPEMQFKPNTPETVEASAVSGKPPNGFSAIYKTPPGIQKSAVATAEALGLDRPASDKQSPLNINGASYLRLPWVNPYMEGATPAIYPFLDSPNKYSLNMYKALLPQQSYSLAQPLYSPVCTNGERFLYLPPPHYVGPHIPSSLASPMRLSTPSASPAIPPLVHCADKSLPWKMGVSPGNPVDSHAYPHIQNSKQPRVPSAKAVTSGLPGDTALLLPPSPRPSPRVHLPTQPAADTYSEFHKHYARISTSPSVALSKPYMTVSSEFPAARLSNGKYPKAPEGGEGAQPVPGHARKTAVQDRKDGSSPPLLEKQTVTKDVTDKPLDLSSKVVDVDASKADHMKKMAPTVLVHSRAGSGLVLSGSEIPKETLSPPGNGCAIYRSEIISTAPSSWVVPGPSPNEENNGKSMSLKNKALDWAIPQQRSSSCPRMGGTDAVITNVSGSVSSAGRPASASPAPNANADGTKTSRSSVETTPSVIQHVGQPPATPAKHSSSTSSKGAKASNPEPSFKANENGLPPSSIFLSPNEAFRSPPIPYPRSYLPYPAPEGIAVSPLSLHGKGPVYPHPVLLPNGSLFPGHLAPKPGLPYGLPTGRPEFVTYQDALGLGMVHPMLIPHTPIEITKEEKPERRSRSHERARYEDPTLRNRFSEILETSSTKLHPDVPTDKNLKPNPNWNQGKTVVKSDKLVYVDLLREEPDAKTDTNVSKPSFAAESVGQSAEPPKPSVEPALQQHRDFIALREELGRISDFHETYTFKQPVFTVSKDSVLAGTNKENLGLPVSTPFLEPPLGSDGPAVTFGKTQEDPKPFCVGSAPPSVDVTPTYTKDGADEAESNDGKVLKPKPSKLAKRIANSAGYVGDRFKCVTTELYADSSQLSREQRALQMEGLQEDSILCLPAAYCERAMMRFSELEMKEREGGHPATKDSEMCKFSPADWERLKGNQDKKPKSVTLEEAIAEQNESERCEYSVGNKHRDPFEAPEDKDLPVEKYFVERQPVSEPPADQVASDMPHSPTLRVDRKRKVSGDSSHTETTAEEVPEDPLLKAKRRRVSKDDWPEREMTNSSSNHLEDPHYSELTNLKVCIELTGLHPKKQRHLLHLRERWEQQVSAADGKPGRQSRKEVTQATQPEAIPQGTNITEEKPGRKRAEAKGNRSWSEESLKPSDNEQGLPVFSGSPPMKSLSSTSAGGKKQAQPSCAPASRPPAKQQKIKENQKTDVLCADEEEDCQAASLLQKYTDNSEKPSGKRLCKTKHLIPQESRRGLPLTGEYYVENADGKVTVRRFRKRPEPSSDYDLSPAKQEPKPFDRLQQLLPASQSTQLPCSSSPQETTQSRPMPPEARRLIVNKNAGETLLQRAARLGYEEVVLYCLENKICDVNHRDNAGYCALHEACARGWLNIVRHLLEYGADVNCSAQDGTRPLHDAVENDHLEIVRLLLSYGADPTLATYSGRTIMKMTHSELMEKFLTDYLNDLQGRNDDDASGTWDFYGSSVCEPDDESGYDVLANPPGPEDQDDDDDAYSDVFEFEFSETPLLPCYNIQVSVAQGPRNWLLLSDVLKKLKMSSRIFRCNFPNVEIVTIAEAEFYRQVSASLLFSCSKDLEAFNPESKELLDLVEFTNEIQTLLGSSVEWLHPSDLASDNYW
UniProt O75376: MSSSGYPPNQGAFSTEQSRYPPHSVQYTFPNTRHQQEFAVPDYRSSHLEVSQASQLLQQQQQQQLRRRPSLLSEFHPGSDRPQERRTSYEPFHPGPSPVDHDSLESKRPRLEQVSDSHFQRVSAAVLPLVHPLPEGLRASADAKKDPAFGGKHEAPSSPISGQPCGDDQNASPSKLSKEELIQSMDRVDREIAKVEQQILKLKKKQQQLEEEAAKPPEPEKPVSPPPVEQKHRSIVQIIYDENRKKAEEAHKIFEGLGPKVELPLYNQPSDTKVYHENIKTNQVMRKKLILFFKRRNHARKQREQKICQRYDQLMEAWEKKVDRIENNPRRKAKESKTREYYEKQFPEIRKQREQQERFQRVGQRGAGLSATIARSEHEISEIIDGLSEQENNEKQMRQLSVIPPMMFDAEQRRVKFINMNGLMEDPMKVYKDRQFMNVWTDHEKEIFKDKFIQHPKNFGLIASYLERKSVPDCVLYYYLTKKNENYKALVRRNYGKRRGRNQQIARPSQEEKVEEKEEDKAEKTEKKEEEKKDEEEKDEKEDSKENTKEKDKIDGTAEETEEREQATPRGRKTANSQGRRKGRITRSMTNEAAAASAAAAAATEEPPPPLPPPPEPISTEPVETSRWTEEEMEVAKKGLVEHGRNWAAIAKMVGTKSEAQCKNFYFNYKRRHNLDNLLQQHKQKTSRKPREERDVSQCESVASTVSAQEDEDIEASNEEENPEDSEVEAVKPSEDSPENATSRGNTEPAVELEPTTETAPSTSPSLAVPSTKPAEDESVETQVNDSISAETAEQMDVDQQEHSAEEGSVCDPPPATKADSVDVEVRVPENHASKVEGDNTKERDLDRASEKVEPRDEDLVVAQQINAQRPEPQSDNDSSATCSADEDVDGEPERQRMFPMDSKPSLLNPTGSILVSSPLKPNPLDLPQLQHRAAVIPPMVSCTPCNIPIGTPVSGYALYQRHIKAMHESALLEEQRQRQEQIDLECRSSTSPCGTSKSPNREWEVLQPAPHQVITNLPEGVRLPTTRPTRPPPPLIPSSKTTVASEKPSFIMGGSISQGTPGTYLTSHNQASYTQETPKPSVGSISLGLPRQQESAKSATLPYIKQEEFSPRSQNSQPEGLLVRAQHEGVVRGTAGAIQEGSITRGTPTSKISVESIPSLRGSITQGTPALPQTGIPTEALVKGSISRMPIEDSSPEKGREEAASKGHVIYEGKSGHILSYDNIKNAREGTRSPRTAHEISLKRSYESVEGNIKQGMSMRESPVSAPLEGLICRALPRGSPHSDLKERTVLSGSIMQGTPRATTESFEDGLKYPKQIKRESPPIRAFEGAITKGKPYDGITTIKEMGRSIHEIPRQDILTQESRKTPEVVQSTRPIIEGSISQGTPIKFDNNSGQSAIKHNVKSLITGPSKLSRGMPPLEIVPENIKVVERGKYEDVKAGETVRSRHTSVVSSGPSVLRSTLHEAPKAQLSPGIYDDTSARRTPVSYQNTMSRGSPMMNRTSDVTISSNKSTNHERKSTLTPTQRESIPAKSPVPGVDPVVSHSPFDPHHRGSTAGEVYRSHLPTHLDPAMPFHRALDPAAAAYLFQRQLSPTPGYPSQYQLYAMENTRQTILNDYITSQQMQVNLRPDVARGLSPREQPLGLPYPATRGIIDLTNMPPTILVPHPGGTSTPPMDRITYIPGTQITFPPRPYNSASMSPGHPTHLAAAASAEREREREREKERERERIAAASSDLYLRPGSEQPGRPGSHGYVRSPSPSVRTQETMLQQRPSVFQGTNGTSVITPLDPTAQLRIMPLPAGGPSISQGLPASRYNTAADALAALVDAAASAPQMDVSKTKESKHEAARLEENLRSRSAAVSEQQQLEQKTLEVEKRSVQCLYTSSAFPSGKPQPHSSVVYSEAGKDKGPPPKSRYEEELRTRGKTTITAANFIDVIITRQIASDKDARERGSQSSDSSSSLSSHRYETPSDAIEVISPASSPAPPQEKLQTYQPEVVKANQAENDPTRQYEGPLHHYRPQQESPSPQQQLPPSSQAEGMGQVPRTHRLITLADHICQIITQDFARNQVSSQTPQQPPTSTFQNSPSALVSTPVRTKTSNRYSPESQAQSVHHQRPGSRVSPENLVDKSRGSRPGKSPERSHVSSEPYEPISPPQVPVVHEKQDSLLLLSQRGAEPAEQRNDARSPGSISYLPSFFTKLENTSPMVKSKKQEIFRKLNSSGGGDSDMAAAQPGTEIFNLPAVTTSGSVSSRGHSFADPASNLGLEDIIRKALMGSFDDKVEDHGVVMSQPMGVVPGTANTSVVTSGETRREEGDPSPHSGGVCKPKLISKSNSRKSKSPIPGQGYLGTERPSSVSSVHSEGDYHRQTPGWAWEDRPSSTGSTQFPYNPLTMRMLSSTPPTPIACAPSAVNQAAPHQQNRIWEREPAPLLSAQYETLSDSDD
in vitro synthesized [35S]-methionine-labelled MBD3 (O95983-2, form named): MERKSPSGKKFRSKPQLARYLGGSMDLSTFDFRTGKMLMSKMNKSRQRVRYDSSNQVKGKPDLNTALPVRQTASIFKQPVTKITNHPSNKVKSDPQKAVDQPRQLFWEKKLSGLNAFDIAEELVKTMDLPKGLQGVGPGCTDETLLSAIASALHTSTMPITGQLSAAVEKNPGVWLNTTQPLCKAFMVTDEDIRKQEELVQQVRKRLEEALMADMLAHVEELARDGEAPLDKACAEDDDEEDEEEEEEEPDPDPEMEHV

For experiment [1], the target named is GAL4-fused zinc-finger DNA binding domain of FBI-1 (human) (UniProt O95365). In words: two-hybrid; mammalian two-hybrid in HEK293 cells: GAL4 fused FBI-1-ZF, VP-16 fused co-repressors, reporter plasmid, with or without MBD3 expression vector.
Experiment [2] deals with GST-fused zinc-finger DNA-binding domain of FBI-1 (human) (UniProt O95365). In words: pull-down; recombinant GST fusion proteins incubated with in vitro synthesized [35S]-methionine-labelled MBD3, precipitated, 10% SDS-PAGE, autoradiography; only the target purified.

“VP16-fused BCL-6 corepressor (BCoR) (from UniProt Q6W2J9 1-1755)”: the binding entry in experiment [1] is reported as “binds”.
With “VP16-fused nuclear receptor corepressor (NCoR) (from UniProt O75376 1-2440)”, the binding result in experiment [1] is “binds”.
Turning to “in vitro synthesized [35S]-methionine-labelled MBD3 (from UniProt O95983-2 1-259)”, in experiment [2], the binding entry is reported as “binds”.

These data come from PMC3711425.
